Drawing on paper PMC8143632, this text covers binding for three substances.

By UniProt entry, the sequences of proteins in these tests, tags left out.
UniProt Q96QT6: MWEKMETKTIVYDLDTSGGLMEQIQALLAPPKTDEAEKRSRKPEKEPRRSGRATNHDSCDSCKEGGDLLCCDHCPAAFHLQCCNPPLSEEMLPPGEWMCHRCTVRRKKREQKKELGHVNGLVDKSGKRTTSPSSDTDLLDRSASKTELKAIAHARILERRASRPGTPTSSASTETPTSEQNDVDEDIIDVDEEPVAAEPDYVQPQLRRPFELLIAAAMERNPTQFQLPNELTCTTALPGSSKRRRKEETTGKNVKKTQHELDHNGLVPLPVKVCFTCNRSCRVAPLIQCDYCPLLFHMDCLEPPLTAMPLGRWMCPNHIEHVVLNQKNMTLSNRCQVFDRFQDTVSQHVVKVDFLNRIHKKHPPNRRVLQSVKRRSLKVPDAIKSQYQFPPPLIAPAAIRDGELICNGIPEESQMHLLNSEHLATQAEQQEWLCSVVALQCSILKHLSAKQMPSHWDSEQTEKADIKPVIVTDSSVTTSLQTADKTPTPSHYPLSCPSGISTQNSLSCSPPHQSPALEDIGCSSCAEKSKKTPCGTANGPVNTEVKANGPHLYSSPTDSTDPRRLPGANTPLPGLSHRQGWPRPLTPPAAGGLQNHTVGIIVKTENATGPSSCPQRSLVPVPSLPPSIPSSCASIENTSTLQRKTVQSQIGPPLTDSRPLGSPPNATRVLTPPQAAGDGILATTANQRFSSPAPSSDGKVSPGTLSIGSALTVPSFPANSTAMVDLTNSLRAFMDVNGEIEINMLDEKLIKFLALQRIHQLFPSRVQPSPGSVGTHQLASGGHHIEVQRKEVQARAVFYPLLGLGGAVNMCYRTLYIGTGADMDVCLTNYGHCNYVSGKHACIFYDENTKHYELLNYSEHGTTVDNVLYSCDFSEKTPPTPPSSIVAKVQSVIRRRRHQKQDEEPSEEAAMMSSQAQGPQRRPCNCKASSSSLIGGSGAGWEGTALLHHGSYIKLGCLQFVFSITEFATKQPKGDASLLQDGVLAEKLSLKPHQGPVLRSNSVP
UniProt Q13547: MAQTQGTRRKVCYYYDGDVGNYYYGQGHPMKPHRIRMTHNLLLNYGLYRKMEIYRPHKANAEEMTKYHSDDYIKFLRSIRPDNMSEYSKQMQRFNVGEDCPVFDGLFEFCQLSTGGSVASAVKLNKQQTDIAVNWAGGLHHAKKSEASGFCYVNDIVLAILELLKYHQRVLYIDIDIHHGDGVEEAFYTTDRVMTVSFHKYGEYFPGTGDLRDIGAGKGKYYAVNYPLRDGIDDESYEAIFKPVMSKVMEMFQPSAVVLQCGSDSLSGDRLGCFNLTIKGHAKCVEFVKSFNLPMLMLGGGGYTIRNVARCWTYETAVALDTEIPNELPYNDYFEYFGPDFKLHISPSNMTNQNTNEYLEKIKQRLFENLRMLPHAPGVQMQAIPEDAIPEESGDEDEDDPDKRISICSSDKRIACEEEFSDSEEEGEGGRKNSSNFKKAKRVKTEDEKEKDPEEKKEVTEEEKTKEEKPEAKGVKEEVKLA
UniProt Q92769: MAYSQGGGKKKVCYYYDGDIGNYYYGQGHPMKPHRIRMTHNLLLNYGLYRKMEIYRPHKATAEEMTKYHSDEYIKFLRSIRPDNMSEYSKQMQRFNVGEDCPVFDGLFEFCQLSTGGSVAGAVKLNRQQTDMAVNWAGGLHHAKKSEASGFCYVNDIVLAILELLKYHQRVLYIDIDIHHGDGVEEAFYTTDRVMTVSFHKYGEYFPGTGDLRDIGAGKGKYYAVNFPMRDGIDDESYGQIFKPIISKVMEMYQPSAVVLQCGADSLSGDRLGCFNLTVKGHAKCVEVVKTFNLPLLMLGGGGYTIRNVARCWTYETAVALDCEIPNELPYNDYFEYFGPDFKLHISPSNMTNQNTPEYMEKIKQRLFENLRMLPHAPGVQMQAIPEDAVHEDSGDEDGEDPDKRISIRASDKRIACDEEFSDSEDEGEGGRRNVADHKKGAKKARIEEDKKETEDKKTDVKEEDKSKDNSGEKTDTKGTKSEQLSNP

Results are given in words; binding and its absence hold for the method and conditions named. In cells and extracts the contact can be indirect. Some binding calls cover weakened binding; strength is not graded here. Sequences can lack the tags named with a protein.

Experiment [1] deals with T1, SIN3B_2-HaloTag (human) (UniProt O75182).
T1 sequence: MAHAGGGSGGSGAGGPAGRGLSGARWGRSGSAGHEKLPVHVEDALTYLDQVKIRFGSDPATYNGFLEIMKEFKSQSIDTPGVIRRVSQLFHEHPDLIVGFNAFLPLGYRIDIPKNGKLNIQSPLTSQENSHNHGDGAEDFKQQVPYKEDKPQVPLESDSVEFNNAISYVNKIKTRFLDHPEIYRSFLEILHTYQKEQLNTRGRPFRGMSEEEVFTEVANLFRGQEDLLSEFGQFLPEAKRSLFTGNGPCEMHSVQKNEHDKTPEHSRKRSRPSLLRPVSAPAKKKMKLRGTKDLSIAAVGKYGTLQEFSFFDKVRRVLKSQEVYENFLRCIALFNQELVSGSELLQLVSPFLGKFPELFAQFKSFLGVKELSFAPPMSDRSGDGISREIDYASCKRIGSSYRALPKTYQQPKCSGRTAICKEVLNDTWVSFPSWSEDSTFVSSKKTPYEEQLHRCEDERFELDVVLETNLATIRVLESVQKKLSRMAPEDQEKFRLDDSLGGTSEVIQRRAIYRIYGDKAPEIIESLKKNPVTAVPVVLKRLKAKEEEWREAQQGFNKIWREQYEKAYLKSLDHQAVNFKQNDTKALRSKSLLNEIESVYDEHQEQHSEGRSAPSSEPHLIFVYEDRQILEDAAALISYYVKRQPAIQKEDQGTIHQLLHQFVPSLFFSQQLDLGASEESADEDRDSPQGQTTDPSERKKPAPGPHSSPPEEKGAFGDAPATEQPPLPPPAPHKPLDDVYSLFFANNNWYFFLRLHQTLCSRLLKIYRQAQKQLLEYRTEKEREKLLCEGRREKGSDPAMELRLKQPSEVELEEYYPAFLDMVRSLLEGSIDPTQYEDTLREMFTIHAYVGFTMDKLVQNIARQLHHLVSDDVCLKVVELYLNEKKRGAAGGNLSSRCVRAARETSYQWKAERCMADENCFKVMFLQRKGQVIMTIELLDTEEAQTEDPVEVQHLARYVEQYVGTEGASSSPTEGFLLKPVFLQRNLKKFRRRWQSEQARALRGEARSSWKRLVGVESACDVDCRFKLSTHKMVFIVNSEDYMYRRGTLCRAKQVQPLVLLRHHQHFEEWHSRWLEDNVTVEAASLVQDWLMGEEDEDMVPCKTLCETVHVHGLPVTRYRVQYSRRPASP
As to the kind of experiment: cross-linking; SIN3A-HaloTag or SIN3B_2-HaloTag from Flp-In-293 cells enriched on Magne HaloTag Beads; 5 mM DSSO on the beads, room temperature, 40 min; eluted with AcTEV Protease; cross-linked peptides found by mass spectrometry (XlinkX, FDR 0.01).

The target of experiment [2] is T2, SIN3A-HaloTag (human) (UniProt Q96ST3).
T2 sequence: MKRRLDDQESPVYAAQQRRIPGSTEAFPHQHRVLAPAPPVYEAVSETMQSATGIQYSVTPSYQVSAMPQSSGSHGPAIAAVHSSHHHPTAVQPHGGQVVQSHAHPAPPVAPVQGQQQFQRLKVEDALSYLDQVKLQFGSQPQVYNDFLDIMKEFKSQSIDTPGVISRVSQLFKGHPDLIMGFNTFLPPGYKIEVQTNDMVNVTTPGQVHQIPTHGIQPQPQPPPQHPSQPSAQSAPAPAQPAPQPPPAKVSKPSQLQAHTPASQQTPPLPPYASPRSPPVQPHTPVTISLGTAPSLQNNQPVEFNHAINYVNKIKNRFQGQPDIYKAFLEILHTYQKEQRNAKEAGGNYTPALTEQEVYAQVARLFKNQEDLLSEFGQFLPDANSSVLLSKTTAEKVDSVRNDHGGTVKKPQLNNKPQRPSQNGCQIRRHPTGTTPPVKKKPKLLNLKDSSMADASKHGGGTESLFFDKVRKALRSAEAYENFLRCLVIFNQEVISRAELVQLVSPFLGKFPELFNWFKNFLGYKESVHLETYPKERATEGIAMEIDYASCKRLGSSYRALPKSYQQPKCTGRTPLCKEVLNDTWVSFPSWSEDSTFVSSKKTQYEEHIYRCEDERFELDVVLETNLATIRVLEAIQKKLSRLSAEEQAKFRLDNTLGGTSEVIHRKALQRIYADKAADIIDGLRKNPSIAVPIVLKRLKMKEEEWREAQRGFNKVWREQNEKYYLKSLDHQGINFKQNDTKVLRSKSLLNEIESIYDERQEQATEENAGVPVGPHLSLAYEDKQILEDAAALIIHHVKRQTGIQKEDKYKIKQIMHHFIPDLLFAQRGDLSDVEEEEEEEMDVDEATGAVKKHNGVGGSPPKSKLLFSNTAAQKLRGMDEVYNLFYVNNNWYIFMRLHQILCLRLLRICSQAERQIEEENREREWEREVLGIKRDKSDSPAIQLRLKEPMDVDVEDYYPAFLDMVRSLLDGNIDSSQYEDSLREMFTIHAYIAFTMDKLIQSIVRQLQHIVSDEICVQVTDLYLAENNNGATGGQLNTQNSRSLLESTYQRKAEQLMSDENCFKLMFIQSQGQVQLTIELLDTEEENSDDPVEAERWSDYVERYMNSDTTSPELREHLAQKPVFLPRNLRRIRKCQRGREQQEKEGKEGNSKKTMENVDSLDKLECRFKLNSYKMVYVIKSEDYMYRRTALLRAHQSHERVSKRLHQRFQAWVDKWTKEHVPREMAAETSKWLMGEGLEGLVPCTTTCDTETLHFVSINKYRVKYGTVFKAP
Described as above.

On to PHF12 (from UniProt Q96QT6 1-1004), for which the binding entry in experiment [1] was “binds”.

For the substance HDAC1 (from UniProt Q13547 1-482), the binding entry in experiment [1] and in experiment [2] was “binds” each time.

For HDAC2 (from UniProt Q92769 1-488), the binding result in experiment [1] and in experiment [2] was “binds” each time.
